# Where “and” joins values, the source holds several entries; their conditions need not be identical. Identical values can stand only once. Counter-ions that a name gives are not always drawn. ± gives the standard deviation of the averaged measurements. Some of the results follow. Part of the spread comes from offsets between plates or batches.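 Primary human stellate myofibroblasts activated in culture; inactivation shown by regained lipid droplets. Readout: fraction of Hoechst-counted cells exceeding a per-plate Bodipy threshold, duplicate wells, each plate with DMSO negative and nortriptyline positive controls. Hits: control-normalized score beyond the plate's top-tenth-percentile nortriptyline wells, or among its three best wells. Final well concentrations unstated.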
# Tested on: primary human hepatic stellate cells (donor 1)
# Assay: percent Bodipy-positive cells; higher = more lipid droplet accumulation
# Conditions: 48 h
# [1] = library stock concentration: 400 uM
# [2] = library stock concentration: 2 mM
# [3] = library stock concentration: 3.33 mM
# [4] = library stock concentration: 10 mM
# [5] = library stock concentration: 80 uM
compound,measurement,setting,value
"CC(C)CCOc1ccc(N)cc1 [CP 24,879 (hydrochloride)]",percent Bodipy-positive cells,library stock concentration: 1 mM,33 ± 20%
Cc1cc(Nc2nc(N[C@@H](C)c3ccc(F)cc3)c(C#N)cc2F)n[nH]1,percent Bodipy-positive cells,[1],14.4 ± 0.82%
same,percent Bodipy-positive cells,[2],23.2 ± 13%
same,percent Bodipy-positive cells,[3],22.5 ± 5.1%
same,percent Bodipy-positive cells,[4],78.7% and 68.2%
CC(/C=C/C(=O)NO)=C\[C@@H](C)C(=O)c1ccc(N(C)C)cc1 [Trichostatin-A],percent Bodipy-positive cells,library stock concentration: 16.5 mM,67 ± 4.8%
COc1cc(N2CCC(N3CCN(C)CC3)CC2)ccc1Nc1ncnc(Nc2ccccc2S(=O)(=O)C(C)C)n1,percent Bodipy-positive cells,[5],8.77 ± 3.6%
same,percent Bodipy-positive cells,[1],10.1 ± 1.2%
same,percent Bodipy-positive cells,[2],31 ± 1.8%
same,percent Bodipy-positive cells,[4],59.5 ± 10%
CCN(CCO)CCCC(C)Nc1ccnc2cc(Cl)ccc12 (configuration not stated) [Hydroxychloroquine sulfate],percent Bodipy-positive cells,[4],46.6 ± 2.5%
Cc1nc(Nc2ncc(C(=O)Nc3c(C)cccc3Cl)s2)cc(N2CCN(CCO)CC2)n1 [Dasatinib],percent Bodipy-positive cells,[5],12.8 ± 4.6%
same,percent Bodipy-positive cells,[1],29.6 ± 2.3%
same,percent Bodipy-positive cells,[2],63.5 ± 10%
same,percent Bodipy-positive cells,[3],56.6 ± 12%
same,percent Bodipy-positive cells,[4],91% and 80.9%
Cc1nc(Nc2ncc(C(=O)Nc3c(C)cccc3Cl)s2)cc(N2CCN(CCO)CC2)n1,percent Bodipy-positive cells,[1],66.7 ± 18%
same,percent Bodipy-positive cells,[4],87.4 ± 1.1%
CCN1CCN(Cc2ccc(-c3cc4c(N[C@H](C)c5ccccc5)ncnc4[nH]3)cc2)CC1,percent Bodipy-positive cells,[3],70.7 ± 3.3%
same,percent Bodipy-positive cells,[4],91.9 ± 3.4%
CCOC(=O)c1c(CSc2ccccc2)n(C)c2cc(Br)c(O)c(CN(C)C)c12 [Arbidol HCl],percent Bodipy-positive cells,[3],24.6 ± 9.3%
same,percent Bodipy-positive cells,[4],71.8 ± 12%
CN(C)c1ccc(C(=C2C=CC(=[N+](C)C)C=C2)c2ccc(N(C)C)cc2)cc1 [Gentian violet],percent Bodipy-positive cells,library stock concentration: 4.9 mM,84 ± 3.9%
same,percent Bodipy-positive cells,[4],19.7 ± 11%
CN(C)c1ccc(C(=C2C=CC(=[N+](C)C)C=C2)c2ccc(N(C)C)cc2)cc1 [Crystal Violet],percent Bodipy-positive cells,[3],19.5 ± 4.1%
same,percent Bodipy-positive cells,[4],88.7 ± 2.9%
COc1ccc(CC2c3cc(OC)c(OC)cc3CC[N+]2(C)CCC(=O)OCCCCCOC(=O)CC[N+]2(C)CCc3cc(OC)c(OC)cc3C2Cc2ccc(OC)c(OC)c2)cc1OC (configuration not stated),percent Bodipy-positive cells,[4],14.3 ± 1.6%
COc1ccc(CC2c3cc(OC)c(OC)cc3CC[N+]2(C)CCC(=O)OCCCCCOC(=O)CC[N+]2(C)CCc3cc(OC)c(OC)cc3C2Cc2ccc(OC)c(OC)c2)cc1OC (configuration not stated) [Atracurium besylate],percent Bodipy-positive cells,,36.6 ± 13%
COc1ccc(CC2c3cc(OC)c(OC)cc3CC[N+]2(C)CCC(=O)OCCCCCOC(=O)CC[N+]2(C)CCc3cc(OC)c(OC)cc3C2Cc2ccc(OC)c(OC)c2)cc1OC (configuration not stated) [Atracurium Besylate],percent Bodipy-positive cells,[3],9.65 ± 7.6%
same,percent Bodipy-positive cells,[4],32.5 ± 3.6%
CC(=O)[C@H]1CC[C@H]2[C@@H]3CC=C4C[C@@H](O)CC[C@]4(C)[C@H]3CC[C@]12C [Pregnenolone],percent Bodipy-positive cells,,21.93 ± 0.061%
same,percent Bodipy-positive cells,[3],8.52 ± 0.8%
same,percent Bodipy-positive cells,library stock concentration: 6.3 mM,10.4 ± 3.4%
same,percent Bodipy-positive cells,[4],14.2% and 35%
CN[C@H]1CC[C@@H](c2ccc(Cl)c(Cl)c2)c2ccccc21 [Sertraline],percent Bodipy-positive cells,,89.9 ± 4.5%
Oc1cc2c(cc1O)[C@@H]1c3ccc(O)c(O)c3OC[C@]1(O)C2 [Hematoxylin],percent Bodipy-positive cells,[3],4.63 ± 0.3%
same,percent Bodipy-positive cells,[4],10.6 ± 1.8%
CC(C(=O)O)c1ccc2c(c1)CC(=O)c1ccccc1S2 (configuration not stated) [Zaltoprofen],percent Bodipy-positive cells,[3],11 ± 8.1%
same,percent Bodipy-positive cells,[4],11.2 ± 0.24%
C[C@@H]1CCNC(=O)c2cc3ccc(C(=O)Nc4nc5ccccc5n4CCCN(C)C)cc3n21,percent Bodipy-positive cells,[5],11.3 ± 2.1%
same,percent Bodipy-positive cells,[1],9.6 ± 1.8%
same,percent Bodipy-positive cells,[2],11.5 ± 2.2%
same,percent Bodipy-positive cells,[4],33.2 ± 7%
Cc1nc(-c2ccc(OCC(C)C)c(C#N)c2)sc1C(=O)O,percent Bodipy-positive cells,[4],29.8 ± 4.9%
Cc1nc(-c2ccc(OCC(C)C)c(C#N)c2)sc1C(=O)O [Febuxostat],percent Bodipy-positive cells,[5],7.12 ± 2.5%
same,percent Bodipy-positive cells,[1],16.1 ± 14%
same,percent Bodipy-positive cells,[2],9.89 ± 1.8%
same,percent Bodipy-positive cells,[3],5.85 ± 1.8%
same,percent Bodipy-positive cells,[4],13.6% and 3.71%
CC(C)(C)c1ccc(C(O)CCCN2CCC(C(O)(c3ccccc3)c3ccccc3)CC2)cc1 (configuration not stated) [Terfenadine],percent Bodipy-positive cells,,54 ± 10%
same,percent Bodipy-positive cells,[4],94.38 ± 0.88%
CC(COc1ccccc1)NC(C)C(O)c1ccc(O)cc1 (configuration not stated) [Isoxsuprine hydrochloride],percent Bodipy-positive cells,,43.1 ± 2.3%
same,percent Bodipy-positive cells,library stock concentration: 5.9 mM,17.8 ± 5.5%
same,percent Bodipy-positive cells,[4],43 ± 5.2%
CC(COc1ccccc1)NC(C)C(O)c1ccc(O)cc1 (configuration not stated) [Duvadilan],percent Bodipy-positive cells,[4],66.1 ± 3.1%
C[C@H]1O[C@@H](Oc2c(-c3cc(O)c(O)c(O)c3)oc3cc(O)cc(O)c3c2=O)[C@@H](O)[C@@H](O)[C@@H]1O [Myricitrin],percent Bodipy-positive cells,[3],8.09 ± 3.8%
same,percent Bodipy-positive cells,[4],9.58 ± 1.2%
